# Data as given in PubChem BioAssay AID652243 (Drosophila RNAi Screening Center, 2013)
# Screen: 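Knock-downs that decrease or increase androgen receptor reporter signal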 (primary screen)
# Cells: Drosophila S2R+ cells
# Reagent: long dsRNA against Drosophila genes
# Duration: 72 h (48 h, then 24 h hormone)
# Challenge: synthetic androgen R1881 at 10 nM for 24 h
# Measurement: 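Firefly light from an androgen-responsive reporter and Renilla control light per well, raw and unnormalised, for each of two replicates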
# Reading the numbers: firefly reporter light: higher = more light from androgen-responsive reporter; Renilla control light: higher = more constitutive control signal (cell number, transfection)
# Hit rule: 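Hit when the log firefly-to-Renilla ratio dropped or increased by a fixed fold versus the mean of GFP or LacZ controls across duplicate plates; lowering cut given as 1.5 and as 3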
# Meaning of the calls: active = hit: reporter lowered or raised; inactive = no hit
# In all, the deposit lists about 24,000 reagents; below is an unselected part of those that have a named target and a result. In the full data, 246 (1%) got an active call. 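Plates not normalised; calls are printed but the firefly/Renilla ratio behind them is not deposited; fold cut for lowering reported inconsistently.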 The raw values are shown without normalisation. Names joined by + are all predicted targets of the reagent. The record does not give: the amount of reagent.
target,amplicon,"firefly reporter light, replicate 1","firefly reporter light, replicate 2","Renilla control light, replicate 1","Renilla control light, replicate 2",activity call
Hsp60B (Heat shock protein 60B),DRSC00542,6.33e5,6.18e5,1.61e6,1.41e6,inactive
CG6277,DRSC16008,1.37e5,1.57e5,2.61e6,2.95e6,inactive
CG6277,DRSC25150,1.41e6,1.22e6,7.63e5,7.41e5,inactive
CR31292 (pseudo),DRSC13120,1.28e5,1.08e5,3.12e5,3.02e5,inactive
Pgk (Phosphoglycerate kinase),DRSC00769,,,,,inactive
Pgk (Phosphoglycerate kinase),DRSC23340,7.22e5,6.16e5,4.16e5,3.37e5,inactive
Pgk (Phosphoglycerate kinase),DRSC26595,5.86e5,4.02e5,6.85e5,6.55e5,inactive
NdufA3 (NADH:ubiquinone oxidoreductase subunit A3),DRSC18431,4.07e5,4.19e5,2.19e6,2.74e6,inactive
Tmtc3 (Transmembrane O-mannosyltransferase targeting cadherins 3),DRSC04444,6.78e5,5.72e5,2.00e6,1.63e6,inactive
iPLA2-VIA (calcium-independent phospholipase A2 VIA),DRSC10699,9.80e5,9.80e5,1.48e6,1.87e6,inactive
CG14491,DRSC06462,98445,1.14e5,2.64e6,2.64e6,inactive
CG14491,DRSC29448,3.50e5,4.47e5,9.99e5,9.99e5,inactive
Arp10 (Actin-related protein 10),DRSC19448,83819,81527,6.00e5,6.24e5,inactive
Arp10 (Actin-related protein 10),DRSC28715,3.30e5,2.57e5,9.69e5,9.80e5,inactive
Zcchc7 (Zinc finger CCHC-type containing 7),DRSC11099,23981,15964,1.52e5,83812,inactive
Zcchc7 (Zinc finger CCHC-type containing 7),DRSC25470,7.29e5,8.45e5,8.62e5,1.03e6,inactive
CG34284,DRSC14773,1.90e5,2.37e5,2.00e6,2.54e6,inactive
Hr51 (Hormone receptor 51),DRSC06627,42743,67317,2.39e6,2.39e6,active
Hr51 (Hormone receptor 51),DRSC22829,2.86e5,5.31e5,1.04e6,1.63e6,inactive
Taf5 (TBP-associated factor 5),DRSC07562,6.69e5,2.79e5,1.51e6,7.35e5,inactive
Taf5 (TBP-associated factor 5),DRSC29351,3.75e5,3.01e5,1.12e6,1.12e6,inactive
Rbm13 (RNA-binding motif protein 13),DRSC17749,2.24e5,2.39e5,2.82e6,2.77e6,inactive
Rbm13 (RNA-binding motif protein 13),DRSC25416,7.45e5,1.08e6,8.39e5,9.35e5,inactive
CG13458,DRSC10005,9.12e5,8.43e5,2.01e6,1.92e6,inactive
CG13458,DRSC24392,7.44e5,6.86e5,1.33e6,1.41e6,inactive
mRNA-cap (mRNA-capping-enzyme),DRSC19789,3.38e5,3.42e5,1.84e6,2.20e6,inactive
mRNA-cap (mRNA-capping-enzyme),DRSC36813,,,,,inactive
mRNA-cap (mRNA-capping-enzyme),DRSC36814,,,,,inactive
mkg-p (monkey king protein),DRSC10777,8.25e5,7.59e5,7.66e5,1.16e6,inactive
CG31253 + CG31131,DRSC13839,1.52e5,2.06e5,2.51e5,3.10e5,inactive
CG34161,DRSC38918,1.33e6,1.17e6,2.10e6,1.55e6,inactive
CG14767,DRSC06500,9.51e5,6.49e5,2.08e6,1.20e6,inactive
CG14767,DRSC28418,6.10e5,7.66e5,7.32e5,8.71e5,inactive
CG11857,DRSC14411,2.44e5,3.09e5,1.84e6,1.80e6,inactive
Bili (Band4.1 inhibitor LRP interactor),DRSC14405,73900,53562,4.00e5,3.86e5,inactive

Next part, starting with the last 7 of the part before.
target,amplicon,"firefly reporter light, replicate 1","firefly reporter light, replicate 2","Renilla control light, replicate 1","Renilla control light, replicate 2",activity call
mkg-p (monkey king protein),DRSC10777,8.25e5,7.59e5,7.66e5,1.16e6,inactive
CG31253 + CG31131,DRSC13839,1.52e5,2.06e5,2.51e5,3.10e5,inactive
CG34161,DRSC38918,1.33e6,1.17e6,2.10e6,1.55e6,inactive
CG14767,DRSC06500,9.51e5,6.49e5,2.08e6,1.20e6,inactive
CG14767,DRSC28418,6.10e5,7.66e5,7.32e5,8.71e5,inactive
CG11857,DRSC14411,2.44e5,3.09e5,1.84e6,1.80e6,inactive
Bili (Band4.1 inhibitor LRP interactor),DRSC14405,73900,53562,4.00e5,3.86e5,inactive
CG34216,DRSC38631,8.84e5,8.64e5,2.06e6,2.41e6,inactive
CG42562,DRSC06453,1.09e5,1.29e5,2.57e6,2.57e6,inactive
PPP1R15 (Protein phosphatase 1 regulatory subunit 15),DRSC04422,2.34e5,1.10e5,2.50e5,1.38e5,inactive
PPP1R15 (Protein phosphatase 1 regulatory subunit 15),DRSC26013,42291,52465,98417,81650,inactive
cni (cornichon),DRSC03512,1.82e5,1.97e5,2.47e6,2.93e6,inactive
kl-2 (male fertility factor kl2),DRSC21136,2.01e5,2.67e5,5.99e5,5.09e5,inactive
kl-2 (male fertility factor kl2),DRSC37780,1.02e6,8.37e5,2.23e6,2.16e6,inactive
PPYR1 (Protein phosphatase Y regulator 1),DRSC19612,2.51e5,2.28e5,1.99e6,2.40e6,inactive
PPYR1 (Protein phosphatase Y regulator 1),DRSC27134,2.15e5,1.93e5,5.31e5,4.70e5,inactive
Irp-1B (Iron regulatory protein 1B),DRSC16720,1.63e5,1.98e5,2.26e6,1.86e6,inactive
Irp-1B (Iron regulatory protein 1B),DRSC24261,5.84e5,4.02e5,5.69e5,5.30e5,inactive
CG1299,DRSC08300,1.41e5,2.18e5,2.05e6,2.53e6,inactive
CG7203,DRSC03026,1.60e5,1.66e5,1.78e6,1.61e6,inactive
CG7203,DRSC25657,7.29e5,6.95e5,6.35e5,1.01e6,inactive
CG14331,DRSC14810,1.92e5,2.04e5,1.83e6,3.05e6,inactive
Atac2 (Ada2a-containing complex component 2),DRSC02053,8.06e5,9.49e5,1.54e6,1.38e6,inactive
Usp14 (Ubiquitin specific protease 14),DRSC02853,8.08e5,9.27e5,1.68e6,1.63e6,inactive
Usp14 (Ubiquitin specific protease 14),DRSC26748,3.30e5,3.90e5,6.02e5,7.52e5,inactive
CG3760,DRSC04415,3.90e5,4.90e5,3.83e6,4.17e6,inactive
JIL-1 (JIL-1 kinase),DRSC11200,5.14e5,4.66e5,1.35e6,1.25e6,inactive
JIL-1 (JIL-1 kinase),DRSC36727,,,,,inactive
JIL-1 (JIL-1 kinase),DRSC36728,,,,,inactive
RIOK1 (RIO kinase 1),DRSC09853,8.72e5,7.49e5,2.12e6,2.60e6,inactive
RIOK1 (RIO kinase 1),DRSC36896,,,,,inactive
RIOK1 (RIO kinase 1),DRSC36897,,,,,inactive
